Reference: patent US8349371B2, “Method for anti-oxidation, inhibiting activity and/or expression of matrix metalloproteinase, and/or inhibiting phosphorylation of mitogen-activated protein kinase using neonauclea reticulata leaf extracts” (China Medical University, priority 2010, dated 2013)
At least one compound was matched to its structure with a doubt left.

Assays:
[1] = tested on: bacterial collagenase; assay: Inhibition test of collagenase activity (agar gel medium); assay type: biochemical
[2] = tested on: bacterial collagenase; assay: Concentration-dependent inhibition test of collagenase activity (fluorogenic substrate); assay type: biochemical; settings: positive control, concentration not given

`C[C@H]1c2cccc(O)c2C(=O)C2=C(O)[C@]3(O)C(=O)C(C(N)=O)=C(O)[C@@H](N(C)C)[C@@H]3[C@@H](O)[C@@H]21` [Doxycycline, doxycycline] was tested, and the “Inhibition Rate (%)” value ([1]; 10 μL (1 mg/mL) of extract, Table 1) was 84.42 ± 7.02%, the “Inhibition Rate” value ([1]; 10 μL (1 mg/mL) of hydrolyte, Table 2) was 97.70 ± 2.94 and the “Inhibition Rate” value [2] was 84.91 ± 4.17.
